The target of the test is murine pTau (pS409) in cortex (Mus musculus). Nature of the test: Western blot of cortex fractions of TMHT (Tg) and nTg mice with ACI-36-2B6-Ab1 as the blotting antibody (1.6 µg/mL by paragraph 440), murine band, infrared quantification normalised to beta-actin. A general note: Immunoblotting shows a protein as a band on a membrane.

No constants are given. Whether binding was seen depends on the method and setting. Binding can be weak; no strength is given.

Here are results for 1 molecule from patent publication US20120276009A1.

B1: ACI-36-2B6-Ab1 (antibody, IgG2b, V domains shown)
VH: EVQLQQSGPELVKPGTSVKISCKASGYTFTDYYMNWVKQSHGKSLEWIGDINPNRGGTTYNQKFKGKATLTVDKSSSTAYMELRSLTSEDSAVYYCASYYAVGYWGQGTTLTVSS
VL: DVVMTQTPLSLPVSLGDQASISCRSSQSLVHSHGKTYLHWYLQKPGQSPKLLIYKVSNRFSGVPDRFSGSGSGTDFTLKISRVEAEDLGVYFCSQTAHFPYTFGGGTKLEIK
As for B1, the binding entry is on record as “binds”.
